Reference: patent US10787490B2, “Peptide inhibitors of interleukin-23 receptor and their use to treat inflammatory diseases” (Protagonist Therapeutics, Inc., priority 2015, dated 2020)

Sequences of proteins named here, by UniProt entry; tags and fusion partners are left off. Residues count along the entry.
UniProt P22303, 32-614: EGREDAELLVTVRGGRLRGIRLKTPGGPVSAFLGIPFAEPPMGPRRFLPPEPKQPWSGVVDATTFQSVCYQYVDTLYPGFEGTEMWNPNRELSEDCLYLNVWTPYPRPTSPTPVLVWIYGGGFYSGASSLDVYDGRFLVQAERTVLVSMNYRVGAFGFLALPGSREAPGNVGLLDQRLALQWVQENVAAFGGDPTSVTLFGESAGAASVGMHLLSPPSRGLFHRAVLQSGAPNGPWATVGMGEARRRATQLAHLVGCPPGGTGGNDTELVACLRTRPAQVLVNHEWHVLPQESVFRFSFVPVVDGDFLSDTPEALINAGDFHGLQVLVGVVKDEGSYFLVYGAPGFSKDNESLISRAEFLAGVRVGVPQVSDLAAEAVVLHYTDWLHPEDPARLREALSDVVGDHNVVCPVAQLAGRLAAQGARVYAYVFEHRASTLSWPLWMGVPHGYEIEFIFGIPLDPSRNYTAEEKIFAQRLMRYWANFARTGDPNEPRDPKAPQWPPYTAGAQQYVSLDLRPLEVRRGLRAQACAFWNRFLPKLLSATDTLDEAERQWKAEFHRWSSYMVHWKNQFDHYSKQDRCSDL

Assays:
acetylcholinesterase = acetylcholinesterase (Homo sapiens, UniProt P22303)
Cyno IL-23R = type: binding; conditions: read-out: ELISA (nM) Cyno, IC50
human IL-12Rβ1 = human IL-12Rβ1 (Homo sapiens, UniProt P42701); test: biochemical
rat splenocytes = test: Rat Splenocyte Assay (IL-17A); type: cell-based; conditions: IL-17A produced by activated splenocytes exposed to IL-23; read-out: Cell assay (nM) Rat (Spleen), IC50
Procedure: A new assay developed was the rat splenocyte assay.
Briefly, splenocytes freshly isolated from rat were seeded in 96-well tissue culture plates in complete medium containing IL-10. […] Changes in IL-17A levels in the supernatants were detected using an ELISA.

human IL6R = target: T1, human IL6R (Homo sapiens, UniProt P08887); test: cell free ELISA for human IL6R (IL-6/IL-6R); type: binding; conditions: read-out: Selectivity (ELISA, nM) IL-6/IL-6R, IC50
T1 sequence (P08887 20-468): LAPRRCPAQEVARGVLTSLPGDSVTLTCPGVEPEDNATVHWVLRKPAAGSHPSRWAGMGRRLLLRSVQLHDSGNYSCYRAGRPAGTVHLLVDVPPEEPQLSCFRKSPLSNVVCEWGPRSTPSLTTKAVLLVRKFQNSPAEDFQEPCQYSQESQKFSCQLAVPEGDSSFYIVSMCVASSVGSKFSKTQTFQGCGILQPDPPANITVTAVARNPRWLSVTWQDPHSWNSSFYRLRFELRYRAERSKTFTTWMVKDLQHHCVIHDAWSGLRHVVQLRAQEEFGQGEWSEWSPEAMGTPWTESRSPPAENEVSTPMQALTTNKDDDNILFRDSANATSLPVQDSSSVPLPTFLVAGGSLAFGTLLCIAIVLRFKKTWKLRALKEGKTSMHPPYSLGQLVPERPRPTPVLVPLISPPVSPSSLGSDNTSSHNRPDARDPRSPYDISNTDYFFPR

IL-23R in human DB cells = test: Schild analysis, Human DB Cell (pSTAT3); type: cell-based; conditions: 0.3-100 nM peptide

Compound	activity in the acetylcholinesterase assay (acetylcholinesterase)	IC50 (Cyno IL-23R)	IC50 (human IL-12Rβ1)	IC50 (rat splenocytes)	IC50 (human IL6R)	Schild slope (IL-23R in human DB cells)
CC(=O)N[C@@H]1CCSC[C@@H](C(=O)N[C@@H](Cc2ccc(OCCN)cc2)C(=O)N[C@@H](Cc2ccc3ccccc3c2)C(=O)NC2(C(=O)N[C@@H](CCC(=O)O)C(=O)N[C@@H](CC(N)=O)C(=O)N[C@@H](CC(N)=O)C(N)=O)CCOCC2)NC(=O)[C@H](CCC(N)=O)NC(=O)[C@H](Cc2c[nH]c3ccccc23)NC(=O)[C@H]([C@@H](C)O)NC(=O)[C@@H](CCC(N)=O)NC1=O [SEQ ID NO: 980]	33%	1.3 nM	> 100000 nM	11.5 nM	> 100000 nM	–
CC(=O)NCCCC[C@H](NC(=O)C(C)(C)NC(=O)[C@H](Cc1ccc2ccccc2c1)NC(=O)[C@H](Cc1ccc(OCCN)cc1)NC(=O)[C@H]1NC(=O)[C@H](CCC(N)=O)NC(=O)[C@H](Cc2c[nH]c3ccccc23)NC(=O)[C@H]([C@@H](C)O)NC(=O)[C@H](CC(N)=O)NC(=O)[C@@H](NC(C)=O)C(C)(C)SSC1(C)C)C(=O)N[C@@H](CC(N)=O)C(=O)N[C@@H](CC(N)=O)C(N)=O [SEQ ID NO: 1169, Ac-[Pen]-NTWQ-[Pen]-[Phe[4-(2-aminoethoxy)]-[2-Nal]-[Aib]-[Lys(Ac)]-NN-NH2]	–	–	–	–	–	0.91
